Assay results from the supplement of paper PMC10849652.
Some of the results follow.

Amino acid sequences for entries named in this document (tags omitted). A change or cut given only in a name is not applied to a line headed by its entry.
UniProt O95707: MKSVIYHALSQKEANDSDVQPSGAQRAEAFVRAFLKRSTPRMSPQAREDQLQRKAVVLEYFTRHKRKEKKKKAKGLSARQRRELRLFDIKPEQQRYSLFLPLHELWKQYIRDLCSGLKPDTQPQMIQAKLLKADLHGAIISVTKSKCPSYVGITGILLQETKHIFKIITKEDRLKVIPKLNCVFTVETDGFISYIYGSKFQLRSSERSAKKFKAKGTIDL
UniProt O75334: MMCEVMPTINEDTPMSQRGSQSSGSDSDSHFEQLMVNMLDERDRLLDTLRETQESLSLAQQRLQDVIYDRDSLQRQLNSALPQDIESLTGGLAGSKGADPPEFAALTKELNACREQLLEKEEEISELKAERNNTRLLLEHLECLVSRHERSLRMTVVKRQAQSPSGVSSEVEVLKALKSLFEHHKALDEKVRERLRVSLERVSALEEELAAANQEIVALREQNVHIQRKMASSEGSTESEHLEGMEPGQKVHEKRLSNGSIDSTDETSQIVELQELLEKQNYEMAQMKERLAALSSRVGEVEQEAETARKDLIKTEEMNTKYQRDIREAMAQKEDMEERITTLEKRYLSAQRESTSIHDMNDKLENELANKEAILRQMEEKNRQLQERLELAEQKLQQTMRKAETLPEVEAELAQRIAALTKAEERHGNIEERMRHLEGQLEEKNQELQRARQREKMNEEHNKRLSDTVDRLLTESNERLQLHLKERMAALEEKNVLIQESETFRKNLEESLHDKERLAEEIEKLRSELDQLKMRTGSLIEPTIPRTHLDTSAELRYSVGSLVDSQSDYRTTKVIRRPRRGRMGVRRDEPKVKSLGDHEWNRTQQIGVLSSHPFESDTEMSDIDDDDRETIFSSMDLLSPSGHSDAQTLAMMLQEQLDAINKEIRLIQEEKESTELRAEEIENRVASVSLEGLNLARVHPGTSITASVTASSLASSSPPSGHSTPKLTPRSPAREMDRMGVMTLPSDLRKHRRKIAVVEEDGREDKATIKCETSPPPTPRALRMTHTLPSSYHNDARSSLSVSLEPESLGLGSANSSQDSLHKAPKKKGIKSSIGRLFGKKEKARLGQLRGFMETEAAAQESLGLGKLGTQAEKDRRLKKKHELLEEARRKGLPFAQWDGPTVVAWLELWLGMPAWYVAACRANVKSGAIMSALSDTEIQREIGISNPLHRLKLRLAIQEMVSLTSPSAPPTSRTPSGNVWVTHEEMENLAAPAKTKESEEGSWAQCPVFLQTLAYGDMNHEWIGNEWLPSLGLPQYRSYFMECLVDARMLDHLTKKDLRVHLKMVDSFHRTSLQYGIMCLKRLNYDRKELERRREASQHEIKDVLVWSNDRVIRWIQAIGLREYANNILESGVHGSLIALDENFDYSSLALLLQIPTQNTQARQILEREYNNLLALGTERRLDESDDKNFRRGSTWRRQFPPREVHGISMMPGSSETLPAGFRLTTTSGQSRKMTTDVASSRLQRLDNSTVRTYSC
UniProt Q8N490: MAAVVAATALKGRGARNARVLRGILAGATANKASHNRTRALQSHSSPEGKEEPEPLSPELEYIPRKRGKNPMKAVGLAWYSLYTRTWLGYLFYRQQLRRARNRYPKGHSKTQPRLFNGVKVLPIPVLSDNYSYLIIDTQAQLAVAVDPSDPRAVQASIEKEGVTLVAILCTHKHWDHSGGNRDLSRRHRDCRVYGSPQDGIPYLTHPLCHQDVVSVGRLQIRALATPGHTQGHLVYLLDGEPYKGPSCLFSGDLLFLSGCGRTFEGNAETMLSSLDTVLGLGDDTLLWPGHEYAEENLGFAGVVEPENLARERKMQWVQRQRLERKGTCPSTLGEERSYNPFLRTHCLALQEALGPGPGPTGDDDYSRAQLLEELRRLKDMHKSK
UniProt O15160, whole entry, looked up: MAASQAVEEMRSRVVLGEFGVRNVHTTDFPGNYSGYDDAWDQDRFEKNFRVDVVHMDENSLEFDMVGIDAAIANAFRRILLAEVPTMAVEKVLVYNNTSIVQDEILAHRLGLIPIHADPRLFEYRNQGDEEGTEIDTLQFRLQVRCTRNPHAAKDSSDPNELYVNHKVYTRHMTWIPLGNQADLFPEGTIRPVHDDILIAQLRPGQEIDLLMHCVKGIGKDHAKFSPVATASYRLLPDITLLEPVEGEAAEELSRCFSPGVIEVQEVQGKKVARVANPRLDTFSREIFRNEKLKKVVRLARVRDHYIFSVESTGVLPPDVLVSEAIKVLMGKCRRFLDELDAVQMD
UniProt P14859: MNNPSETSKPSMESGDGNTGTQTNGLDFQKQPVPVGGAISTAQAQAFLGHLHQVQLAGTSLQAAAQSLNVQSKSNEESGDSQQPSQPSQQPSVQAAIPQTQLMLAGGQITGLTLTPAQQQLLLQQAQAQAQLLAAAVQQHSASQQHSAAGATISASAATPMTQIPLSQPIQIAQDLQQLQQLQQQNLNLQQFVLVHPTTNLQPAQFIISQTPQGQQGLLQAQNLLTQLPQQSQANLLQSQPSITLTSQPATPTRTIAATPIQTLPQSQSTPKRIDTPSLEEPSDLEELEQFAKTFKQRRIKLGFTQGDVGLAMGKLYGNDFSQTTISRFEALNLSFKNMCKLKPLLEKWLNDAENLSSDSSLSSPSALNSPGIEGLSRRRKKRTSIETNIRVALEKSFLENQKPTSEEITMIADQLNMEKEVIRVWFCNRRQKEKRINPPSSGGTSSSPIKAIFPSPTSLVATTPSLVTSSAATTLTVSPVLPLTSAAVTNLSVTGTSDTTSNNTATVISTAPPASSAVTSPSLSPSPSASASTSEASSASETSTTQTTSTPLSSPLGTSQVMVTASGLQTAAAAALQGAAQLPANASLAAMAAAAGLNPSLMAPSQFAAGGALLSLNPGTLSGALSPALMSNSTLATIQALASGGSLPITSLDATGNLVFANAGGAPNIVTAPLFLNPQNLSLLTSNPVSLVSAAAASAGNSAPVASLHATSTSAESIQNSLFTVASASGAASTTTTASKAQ
UniProt Q9NP80: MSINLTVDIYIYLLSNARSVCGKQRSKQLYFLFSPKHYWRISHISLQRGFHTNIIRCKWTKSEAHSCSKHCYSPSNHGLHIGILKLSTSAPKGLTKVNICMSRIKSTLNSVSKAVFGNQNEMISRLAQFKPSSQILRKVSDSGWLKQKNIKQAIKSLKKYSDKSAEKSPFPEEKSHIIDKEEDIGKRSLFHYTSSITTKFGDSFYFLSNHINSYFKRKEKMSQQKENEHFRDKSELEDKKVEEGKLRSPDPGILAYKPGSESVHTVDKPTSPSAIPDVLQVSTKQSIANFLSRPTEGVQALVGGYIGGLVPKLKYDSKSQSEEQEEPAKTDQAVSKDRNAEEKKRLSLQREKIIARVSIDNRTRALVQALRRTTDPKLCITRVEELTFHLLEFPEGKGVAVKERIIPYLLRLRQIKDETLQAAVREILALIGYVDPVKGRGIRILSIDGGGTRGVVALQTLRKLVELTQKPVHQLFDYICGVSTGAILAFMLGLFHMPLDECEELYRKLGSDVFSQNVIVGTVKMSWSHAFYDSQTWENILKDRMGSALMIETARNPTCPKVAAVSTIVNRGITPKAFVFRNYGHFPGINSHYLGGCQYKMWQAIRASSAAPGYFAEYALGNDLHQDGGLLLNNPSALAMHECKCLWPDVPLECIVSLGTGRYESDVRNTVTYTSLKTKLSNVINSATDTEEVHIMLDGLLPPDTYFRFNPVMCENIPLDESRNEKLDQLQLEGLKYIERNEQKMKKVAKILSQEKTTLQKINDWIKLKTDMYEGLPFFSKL
UniProt P53350, whole entry, looked up: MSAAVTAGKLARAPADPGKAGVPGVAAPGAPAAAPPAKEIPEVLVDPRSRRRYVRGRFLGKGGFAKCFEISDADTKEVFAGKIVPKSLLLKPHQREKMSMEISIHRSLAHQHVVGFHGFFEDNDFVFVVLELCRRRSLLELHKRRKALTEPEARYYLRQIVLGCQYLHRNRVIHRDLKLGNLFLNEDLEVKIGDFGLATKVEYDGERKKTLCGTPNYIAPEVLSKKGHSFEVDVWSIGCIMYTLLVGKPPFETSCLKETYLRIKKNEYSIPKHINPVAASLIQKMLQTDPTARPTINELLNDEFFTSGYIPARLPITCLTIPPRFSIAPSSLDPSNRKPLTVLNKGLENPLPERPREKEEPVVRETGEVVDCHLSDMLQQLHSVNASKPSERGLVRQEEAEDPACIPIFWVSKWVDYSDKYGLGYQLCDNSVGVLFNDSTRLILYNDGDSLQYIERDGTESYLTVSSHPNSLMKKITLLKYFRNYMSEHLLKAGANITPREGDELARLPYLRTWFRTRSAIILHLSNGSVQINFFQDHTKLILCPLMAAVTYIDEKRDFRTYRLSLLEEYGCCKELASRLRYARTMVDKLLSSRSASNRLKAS
UniProt Q15165: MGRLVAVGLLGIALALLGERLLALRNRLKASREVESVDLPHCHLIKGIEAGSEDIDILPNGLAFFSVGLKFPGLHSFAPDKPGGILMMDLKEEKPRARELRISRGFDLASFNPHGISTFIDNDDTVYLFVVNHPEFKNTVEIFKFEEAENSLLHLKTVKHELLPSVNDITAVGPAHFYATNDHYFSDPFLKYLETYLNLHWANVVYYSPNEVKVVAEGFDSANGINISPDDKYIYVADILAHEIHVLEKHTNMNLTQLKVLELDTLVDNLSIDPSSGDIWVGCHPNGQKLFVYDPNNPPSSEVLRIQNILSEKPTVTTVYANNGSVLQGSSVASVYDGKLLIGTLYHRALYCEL
UniProt Q96AD5: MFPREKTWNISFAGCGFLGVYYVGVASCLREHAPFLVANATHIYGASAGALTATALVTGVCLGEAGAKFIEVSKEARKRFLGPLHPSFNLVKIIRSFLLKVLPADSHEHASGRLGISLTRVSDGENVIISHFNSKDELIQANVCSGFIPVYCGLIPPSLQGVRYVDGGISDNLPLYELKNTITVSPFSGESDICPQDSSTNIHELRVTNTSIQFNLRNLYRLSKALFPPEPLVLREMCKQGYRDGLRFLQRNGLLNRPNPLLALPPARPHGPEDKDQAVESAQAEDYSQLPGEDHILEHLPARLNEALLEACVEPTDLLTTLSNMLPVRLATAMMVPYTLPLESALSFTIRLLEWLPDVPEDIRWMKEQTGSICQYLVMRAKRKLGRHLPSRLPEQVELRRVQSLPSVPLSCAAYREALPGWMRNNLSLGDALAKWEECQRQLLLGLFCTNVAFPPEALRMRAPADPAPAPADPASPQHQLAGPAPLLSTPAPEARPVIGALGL
UniProt Q9NQ55: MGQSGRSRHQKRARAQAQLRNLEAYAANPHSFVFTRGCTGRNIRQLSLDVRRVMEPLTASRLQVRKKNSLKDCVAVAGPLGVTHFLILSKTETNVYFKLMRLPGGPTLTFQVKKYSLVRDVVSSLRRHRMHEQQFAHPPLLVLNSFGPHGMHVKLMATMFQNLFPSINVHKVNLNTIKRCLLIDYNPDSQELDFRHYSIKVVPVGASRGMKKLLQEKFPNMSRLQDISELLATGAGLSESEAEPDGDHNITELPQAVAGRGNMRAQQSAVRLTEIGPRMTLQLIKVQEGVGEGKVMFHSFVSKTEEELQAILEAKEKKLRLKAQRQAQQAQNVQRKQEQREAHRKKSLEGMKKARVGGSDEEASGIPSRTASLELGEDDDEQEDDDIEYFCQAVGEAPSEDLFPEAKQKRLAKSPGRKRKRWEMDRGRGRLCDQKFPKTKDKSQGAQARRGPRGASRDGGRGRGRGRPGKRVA

Columns and labels:
Experiment in all cases: log2 fold change, soluble protein after heating vs DMSO (PISA); higher = thermal stabilisation; K562 lysate, 10 uM; active = over 0.2 and 3.5 SD of the protein, either way, in both replicates (recomputed)
[1] = compound: Cc1cn(-c2cc(NC(=O)c3ccc(C)c(Nc4nccc(-c5cccnc5)n4)c3)cc(C(F)(F)F)c2)cn1 [nilotinib]
Method in brief: (§1)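 Pellets of K562 cells were dounce-homogenised in PBS pH 7.4 with 1 mM MgCl2, and the crude extract was held at 1 mg/mL protein for a 30 min treatment with 10 μM compound. Aliquots were heated for 3 min over 48°C-58°C and pooled before NP-40 was added to 0.5% at 4°C. The supernatant from 21,000xg for 90 min was quantified by TMTpro 16plex LC-MS/MS with channel sums equalised. Values are reported from duplicates as log-two fold change in thermal stability relative to solvent controls.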

[2] = compound: Cc1nc(Nc2n[nH]c3c2CN(C(=O)N[C@H](CN(C)C)c2ccccc2)C3(C)C)c2sccc2n1
Method in brief: as §1

[3] = compound: Cc1nc(Nc2ncc(C(=O)Nc3c(C)cccc3Cl)s2)cc(N2CCN(CCO)CC2)n1 [dasatinib]
Method in brief: as §1

[4] = compound: Cc1ncc(-c2ccnc(Nc3ccc(S(C)(=O)=O)cc3)n2)n1C(C)C
Method in brief: as §1

[5] = compound: Cn1cc(-c2ccc3c(c2)CCN3C(=O)Cc2cccc(C(F)(F)F)c2)c2c(N)ncnc21
Method in brief: as §1

[6] = compound: Cn1cc(CNCC2CCN(c3ncc(C(=O)NO)cn3)CC2)c2ccccc21 [quisinostat]
Method in brief: as §1

[7] = compound: Cn1cncc1[C@@](N)(c1ccc(Cl)cc1)c1ccc2c(c1)c(-c1cccc(Cl)c1)cc(=O)n2C [tipifarnib]
Method in brief: as §1

[8] = compound: NC(=O)Nc1cc(-c2cccc(F)c2)sc1C(=O)N[C@H]1CCCNC1
Method in brief: as §1

[9] = compound: NC(=O)c1cnc(N[C@@H]2CCCC[C@@H]2N)nc1Nc1cccc(-n2nccn2)c1
Method in brief: as §1

[10] = compound: NC1(c2ccc(-c3nc4ccn5c(=O)[nH]nc5c4cc3-c3ccccc3)cc2)CCC1
Method in brief: as §1

[11] = compound: NCC(=O)Nc1ccc(-n2nc(C(F)(F)F)cc2-c2ccc3c(ccc4ccccc43)c2)cc1
Method in brief: as §1

[12] = compound: O=C(CCCCCCC(=O)Nc1ccccc1)NO [vorinostat]
Method in brief: as §1

[13] = compound: O=C(O)c1ccc2c(c1)nc(Nc1cccc(Cl)c1)c1ccncc12 [silmitasertib]
Method in brief: as §1

[14] = compound: O=C1NC(=O)C(c2cnc3ccccn23)=C1c1cn2c3c(cc(F)cc13)CN(C(=O)N1CCCCC1)CC2
Method in brief: as §1

[15] = compound: c1cn2cc(-c3ccc4cn[nH]c4c3)nc(Nc3ccc(N4CCOCC4)cc3)c2n1 [entospletinib]
Method in brief: as §1

Target | log2 fold change [1] | log2 fold change [2] | log2 fold change [3] | log2 fold change [4] | log2 fold change [5] | log2 fold change [6] | log2 fold change [7] | log2 fold change [8] | log2 fold change [9] | log2 fold change [10] | log2 fold change [11] | log2 fold change [12] | log2 fold change [13] | log2 fold change [14] | log2 fold change [15]
POP4 (UniProt O95707) | inactive: 0.08 | inactive: -0.063 | inactive: 0.06 | inactive: 0 | inactive: 0.014 | inactive: -0.016 | inactive: 0.018 | inactive: 0.036 | inactive: -0.004 | inactive: -0.011 | inactive: 0.041 | inactive: 0.084 | inactive: 0.045 | inactive: 0.023 | inactive: -0.023
PPFIA2 (UniProt O75334) | inactive: -0.046 | inactive: 0.027 | inactive: -0.064 | inactive: -0.022 | inactive: 0.01 | inactive: -0.238 | inactive: -0.029 | inactive: 0.017 | inactive: 0.024 | inactive: -0.089 | inactive: 0.05 | inactive: -0.053 | inactive: -0.074 | inactive: 0.069 | inactive: -0.036
PNKD isoform 2 (UniProt Q8N490) | inactive: 0.016 | inactive: -0.07 | inactive: -0.035 | inactive: 0.07 | inactive: -0.027 | inactive: 0.101 | inactive: 0.063 | inactive: 0.002 | inactive: 0.006 | inactive: -0.058 | inactive: -0.157 | inactive: 0.05 | inactive: -0.011 | inactive: -0.138 | inactive: 0.086
POLR1C (UniProt O15160) | inactive: -0.001 | inactive: -0.009 | inactive: -0.029 | inactive: -0.027 | inactive: -0.013 | inactive: -0.02 | inactive: 0.007 | inactive: 0.018 | inactive: -0.001 | inactive: 0.033 | inactive: -0.045 | inactive: -0.162 | inactive: 0.059 | inactive: 0.018 | inactive: -0.068
POU2F1 isoform 6 (UniProt P14859) | inactive: 0.078 | inactive: -0.011 | inactive: 0.015 | inactive: 0.046 | inactive: 0.03 | inactive: 0.05 | inactive: -0.027 | inactive: 0.053 | inactive: 0.01 | inactive: 0.02 | inactive: -0.012 | inactive: -0.141 | inactive: -0.02 | inactive: -0.022 | inactive: -0.022
PNPLA8 (UniProt Q9NP80) | inactive: -0.01 | inactive: -0.052 | inactive: -0.047 | inactive: 0.047 | inactive: 0.04 | inactive: 0.023 | inactive: -0.125 | inactive: 0.023 | inactive: 0.007 | inactive: -0.018 | inactive: 0.054 | inactive: 0.04 | inactive: 0.064 | inactive: 0.004 | inactive: -0.008
PLK1 (UniProt P53350) | inactive: 0.014 | inactive: -0.073 | inactive: -0.004 | inactive: 0.008 | inactive: -0.015 | inactive: -0.021 | inactive: 0.032 | inactive: -0.193 | inactive: -0.043 | inactive: 0.01 | inactive: 0.027 | active: -0.638 | inactive: 0.005 | inactive: 0.022 | inactive: 0.072
PON2 (UniProt Q15165) | inactive: 0.155 | inactive: -0.009 | inactive: 0.13 | inactive: -0.097 | inactive: -0.059 | inactive: -0.089 | inactive: -0.158 | inactive: 0 | inactive: 0.006 | inactive: -0.047 | inactive: -0.016 | inactive: 0.073 | inactive: -0.013 | inactive: 0.005 | inactive: 0.008
PNPLA2 (UniProt Q96AD5) | inactive: -0.006 | inactive: 0.006 | inactive: -0.032 | inactive: 0.041 | inactive: 0.055 | inactive: 0.003 | inactive: -0.014 | inactive: -0.006 | inactive: 0.018 | inactive: -0.04 | inactive: -0.016 | inactive: 0.089 | inactive: 0.019 | inactive: 0.039 | inactive: -0.016
PPAN isoform 3 (UniProt Q9NQ55) | inactive: 0.047 | inactive: -0.064 | inactive: -0.017 | inactive: 0.023 | inactive: 0.001 | inactive: -0.093 | inactive: -0.033 | inactive: 0.005 | inactive: 0.011 | inactive: -0.016 | inactive: 0 | inactive: 0.076 | inactive: -0.039 | inactive: 0.021 | inactive: 0.039
